Data as given in PubChem BioAssay AID1159584 (Peter MacCallum Cancer Centre, 2016)

Assay: 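Knock-downs that harm CDH1-null cells more than parental MCF10A cells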 (primary screen)
System: human MCF10A breast epithelial cells, parental and CDH1-null
Reagents: siRNA against human genes
Detection: 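ATP luminescence (CellTiter-Glo) viability per line relative to mean mock wells over all plates, and the ratio of CDH1-null to parental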
Scale: CDH1-null / parental viability ratio: higher = CDH1-null cells survive relatively better than parental; CDH1-null viability vs mock: higher = more viable CDH1-null cells
Units: CDH1-null viability vs mock in fraction of mock
Here is an unselected part of about 18,000 reagents tested. Not all columns of the deposit are shown. Reagent sequences are not shown. Not stated in the record: the amount of reagent, the time to read-out.

NR2C2 (nuclear receptor subfamily 2 group C member 2) | CDH1-null / parental viability ratio: 0.91; CDH1-null viability vs mock: 0.71
DISC1 (DISC1 scaffold protein) | CDH1-null / parental viability ratio: 1.26; CDH1-null viability vs mock: 0.58
PNMA6A (PNMA family member 6A) | CDH1-null / parental viability ratio: 1.2; CDH1-null viability vs mock: 0.67
TRAF3 (TNF receptor associated factor 3) | CDH1-null / parental viability ratio: 0.62; CDH1-null viability vs mock: 0.2
MDC1 (mediator of DNA damage checkpoint 1) | CDH1-null / parental viability ratio: 0.76; CDH1-null viability vs mock: 0.56
ASPH (aspartate beta-hydroxylase) | CDH1-null / parental viability ratio: 0.9; CDH1-null viability vs mock: 0.54
ENPP7 (ectonucleotide pyrophosphatase/phosphodiesterase 7) | CDH1-null / parental viability ratio: 1.17; CDH1-null viability vs mock: 0.94
CD164L2 (CD164 molecule like 2) | CDH1-null / parental viability ratio: 1; CDH1-null viability vs mock: 0.86
HHATL (hedgehog acyltransferase like) | CDH1-null / parental viability ratio: 0.93; CDH1-null viability vs mock: 0.68
MUC16 (mucin 16, cell surface associated) | CDH1-null / parental viability ratio: 0.93; CDH1-null viability vs mock: 0.4
NOL12 (nucleolar protein 12) | CDH1-null / parental viability ratio: 0.82; CDH1-null viability vs mock: 0.51
H2AC21 (H2A clustered histone 21) | CDH1-null / parental viability ratio: 1.21; CDH1-null viability vs mock: 1.04
GTF2F1 (general transcription factor IIF subunit 1) | CDH1-null / parental viability ratio: 0.86; CDH1-null viability vs mock: 0.66
RASIP1 (Ras interacting protein 1) | CDH1-null / parental viability ratio: 1.02; CDH1-null viability vs mock: 0.48
IFNA17 (interferon alpha 17) | CDH1-null / parental viability ratio: 1.07; CDH1-null viability vs mock: 0.92
SYNCRIP (synaptotagmin binding cytoplasmic RNA interacting protein) | CDH1-null / parental viability ratio: 0.84; CDH1-null viability vs mock: 0.36

Continued, starting with the last 4 of the part before.
GTF2F1 (general transcription factor IIF subunit 1) | CDH1-null / parental viability ratio: 0.86; CDH1-null viability vs mock: 0.66
RASIP1 (Ras interacting protein 1) | CDH1-null / parental viability ratio: 1.02; CDH1-null viability vs mock: 0.48
IFNA17 (interferon alpha 17) | CDH1-null / parental viability ratio: 1.07; CDH1-null viability vs mock: 0.92
SYNCRIP (synaptotagmin binding cytoplasmic RNA interacting protein) | CDH1-null / parental viability ratio: 0.84; CDH1-null viability vs mock: 0.36
SORCS3 (sortilin related VPS10 domain containing receptor 3) | CDH1-null / parental viability ratio: 0.78; CDH1-null viability vs mock: 0.72
B3GNT8 | CDH1-null / parental viability ratio: 1.08; CDH1-null viability vs mock: 0.68
ZIC3 (Zic family zinc finger 3) | CDH1-null / parental viability ratio: 1.19; CDH1-null viability vs mock: 0.51
ABHD6 (abhydrolase domain containing 6, acylglycerol lipase) | CDH1-null / parental viability ratio: 0.83; CDH1-null viability vs mock: 0.75
CITED1 (Cbp/p300 interacting transactivator with ED-rich tail 1) | CDH1-null / parental viability ratio: 1.36; CDH1-null viability vs mock: 0.94
APOA2 (apolipoprotein A2) | CDH1-null / parental viability ratio: 1.12; CDH1-null viability vs mock: 0.57
PLEKHH2 (pleckstrin homology, MyTH4 and FERM domain containing H2) | CDH1-null / parental viability ratio: 0.96; CDH1-null viability vs mock: 0.53
AFG2A (AAA ATPase AFG2A) | CDH1-null / parental viability ratio: 0.85; CDH1-null viability vs mock: 0.66
KCNH3 (potassium voltage-gated channel subfamily H member 3) | CDH1-null / parental viability ratio: 1.25; CDH1-null viability vs mock: 0.94
CHST13 (carbohydrate sulfotransferase 13) | CDH1-null / parental viability ratio: 0.9; CDH1-null viability vs mock: 0.8
ABAT (4-aminobutyrate aminotransferase) | CDH1-null / parental viability ratio: 0.8; CDH1-null viability vs mock: 0.56
KRTAP8-1 (keratin associated protein 8-1) | CDH1-null / parental viability ratio: 0.92; CDH1-null viability vs mock: 0.74
SNX33 (sorting nexin 33) | CDH1-null / parental viability ratio: 1.06; CDH1-null viability vs mock: 0.88
ANP32E (acidic nuclear phosphoprotein 32 family member E) | CDH1-null / parental viability ratio: 0.89; CDH1-null viability vs mock: 0.66
FHIT (fragile histidine triad diadenosine triphosphatase) | CDH1-null / parental viability ratio: 0.86; CDH1-null viability vs mock: 0.72
ZNF703 (zinc finger protein 703) | CDH1-null / parental viability ratio: 1.04; CDH1-null viability vs mock: 0.81
KLF8 (KLF transcription factor 8) | CDH1-null / parental viability ratio: 0.72; CDH1-null viability vs mock: 0.62
NODAL (nodal growth differentiation factor) | CDH1-null / parental viability ratio: 0.56; CDH1-null viability vs mock: 0.44
PPHLN1 (periphilin 1) | CDH1-null / parental viability ratio: 1.15; CDH1-null viability vs mock: 0.62
